This is one part of the list.

Protein sequences, listed by entry. Tags and fused reporters are not part of them. Lines headed by an entry give the natural chain unless they say otherwise; changes in a name come on top.
UniProt Q06033: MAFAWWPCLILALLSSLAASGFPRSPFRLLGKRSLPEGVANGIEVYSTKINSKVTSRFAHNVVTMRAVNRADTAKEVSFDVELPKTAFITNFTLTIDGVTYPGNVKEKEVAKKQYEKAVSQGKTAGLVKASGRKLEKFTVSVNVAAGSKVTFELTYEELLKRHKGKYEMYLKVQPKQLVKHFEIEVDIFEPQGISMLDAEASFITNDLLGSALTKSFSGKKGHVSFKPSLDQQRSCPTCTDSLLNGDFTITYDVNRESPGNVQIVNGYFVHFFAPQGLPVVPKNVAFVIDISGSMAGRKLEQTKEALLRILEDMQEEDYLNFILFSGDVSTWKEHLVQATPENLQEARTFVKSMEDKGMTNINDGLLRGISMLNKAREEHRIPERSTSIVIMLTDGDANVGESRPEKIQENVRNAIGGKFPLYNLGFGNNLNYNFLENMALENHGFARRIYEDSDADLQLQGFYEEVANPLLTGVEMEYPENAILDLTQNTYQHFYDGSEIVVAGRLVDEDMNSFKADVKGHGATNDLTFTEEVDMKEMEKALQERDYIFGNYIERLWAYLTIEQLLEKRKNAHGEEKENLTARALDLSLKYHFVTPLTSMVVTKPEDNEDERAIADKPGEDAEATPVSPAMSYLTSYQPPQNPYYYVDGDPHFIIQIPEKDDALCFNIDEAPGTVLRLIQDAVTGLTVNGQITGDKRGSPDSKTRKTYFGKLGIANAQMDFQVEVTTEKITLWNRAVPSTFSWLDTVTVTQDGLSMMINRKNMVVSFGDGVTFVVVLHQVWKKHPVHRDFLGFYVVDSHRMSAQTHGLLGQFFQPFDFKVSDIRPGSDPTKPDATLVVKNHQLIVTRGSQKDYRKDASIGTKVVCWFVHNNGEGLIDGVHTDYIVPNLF
UniProt Q9H910: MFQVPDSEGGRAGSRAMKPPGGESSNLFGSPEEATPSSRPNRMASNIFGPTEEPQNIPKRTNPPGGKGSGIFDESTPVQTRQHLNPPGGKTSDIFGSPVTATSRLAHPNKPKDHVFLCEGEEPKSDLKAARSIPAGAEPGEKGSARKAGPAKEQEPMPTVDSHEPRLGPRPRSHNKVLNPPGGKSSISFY
UniProt Q96AZ6: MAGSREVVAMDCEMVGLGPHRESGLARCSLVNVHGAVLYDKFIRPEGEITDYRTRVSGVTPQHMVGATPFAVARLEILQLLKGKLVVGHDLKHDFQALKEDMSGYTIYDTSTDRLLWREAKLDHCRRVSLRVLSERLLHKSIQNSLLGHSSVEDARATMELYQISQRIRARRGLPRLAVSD
UniProt Q96MP8: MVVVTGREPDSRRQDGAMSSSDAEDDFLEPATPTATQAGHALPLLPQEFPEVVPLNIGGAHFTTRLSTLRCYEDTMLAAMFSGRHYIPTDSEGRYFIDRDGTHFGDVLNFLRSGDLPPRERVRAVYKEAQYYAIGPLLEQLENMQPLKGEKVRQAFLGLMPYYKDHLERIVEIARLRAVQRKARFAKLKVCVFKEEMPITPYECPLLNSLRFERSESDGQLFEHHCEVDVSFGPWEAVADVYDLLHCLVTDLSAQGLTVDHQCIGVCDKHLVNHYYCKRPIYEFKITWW
UniProt O43731: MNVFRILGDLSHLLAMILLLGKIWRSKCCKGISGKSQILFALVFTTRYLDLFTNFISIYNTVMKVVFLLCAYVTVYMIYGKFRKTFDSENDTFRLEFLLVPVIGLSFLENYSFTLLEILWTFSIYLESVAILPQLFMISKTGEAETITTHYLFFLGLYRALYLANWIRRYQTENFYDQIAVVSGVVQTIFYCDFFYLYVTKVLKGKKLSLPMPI
UniProt Q14571, whole entry, looked up: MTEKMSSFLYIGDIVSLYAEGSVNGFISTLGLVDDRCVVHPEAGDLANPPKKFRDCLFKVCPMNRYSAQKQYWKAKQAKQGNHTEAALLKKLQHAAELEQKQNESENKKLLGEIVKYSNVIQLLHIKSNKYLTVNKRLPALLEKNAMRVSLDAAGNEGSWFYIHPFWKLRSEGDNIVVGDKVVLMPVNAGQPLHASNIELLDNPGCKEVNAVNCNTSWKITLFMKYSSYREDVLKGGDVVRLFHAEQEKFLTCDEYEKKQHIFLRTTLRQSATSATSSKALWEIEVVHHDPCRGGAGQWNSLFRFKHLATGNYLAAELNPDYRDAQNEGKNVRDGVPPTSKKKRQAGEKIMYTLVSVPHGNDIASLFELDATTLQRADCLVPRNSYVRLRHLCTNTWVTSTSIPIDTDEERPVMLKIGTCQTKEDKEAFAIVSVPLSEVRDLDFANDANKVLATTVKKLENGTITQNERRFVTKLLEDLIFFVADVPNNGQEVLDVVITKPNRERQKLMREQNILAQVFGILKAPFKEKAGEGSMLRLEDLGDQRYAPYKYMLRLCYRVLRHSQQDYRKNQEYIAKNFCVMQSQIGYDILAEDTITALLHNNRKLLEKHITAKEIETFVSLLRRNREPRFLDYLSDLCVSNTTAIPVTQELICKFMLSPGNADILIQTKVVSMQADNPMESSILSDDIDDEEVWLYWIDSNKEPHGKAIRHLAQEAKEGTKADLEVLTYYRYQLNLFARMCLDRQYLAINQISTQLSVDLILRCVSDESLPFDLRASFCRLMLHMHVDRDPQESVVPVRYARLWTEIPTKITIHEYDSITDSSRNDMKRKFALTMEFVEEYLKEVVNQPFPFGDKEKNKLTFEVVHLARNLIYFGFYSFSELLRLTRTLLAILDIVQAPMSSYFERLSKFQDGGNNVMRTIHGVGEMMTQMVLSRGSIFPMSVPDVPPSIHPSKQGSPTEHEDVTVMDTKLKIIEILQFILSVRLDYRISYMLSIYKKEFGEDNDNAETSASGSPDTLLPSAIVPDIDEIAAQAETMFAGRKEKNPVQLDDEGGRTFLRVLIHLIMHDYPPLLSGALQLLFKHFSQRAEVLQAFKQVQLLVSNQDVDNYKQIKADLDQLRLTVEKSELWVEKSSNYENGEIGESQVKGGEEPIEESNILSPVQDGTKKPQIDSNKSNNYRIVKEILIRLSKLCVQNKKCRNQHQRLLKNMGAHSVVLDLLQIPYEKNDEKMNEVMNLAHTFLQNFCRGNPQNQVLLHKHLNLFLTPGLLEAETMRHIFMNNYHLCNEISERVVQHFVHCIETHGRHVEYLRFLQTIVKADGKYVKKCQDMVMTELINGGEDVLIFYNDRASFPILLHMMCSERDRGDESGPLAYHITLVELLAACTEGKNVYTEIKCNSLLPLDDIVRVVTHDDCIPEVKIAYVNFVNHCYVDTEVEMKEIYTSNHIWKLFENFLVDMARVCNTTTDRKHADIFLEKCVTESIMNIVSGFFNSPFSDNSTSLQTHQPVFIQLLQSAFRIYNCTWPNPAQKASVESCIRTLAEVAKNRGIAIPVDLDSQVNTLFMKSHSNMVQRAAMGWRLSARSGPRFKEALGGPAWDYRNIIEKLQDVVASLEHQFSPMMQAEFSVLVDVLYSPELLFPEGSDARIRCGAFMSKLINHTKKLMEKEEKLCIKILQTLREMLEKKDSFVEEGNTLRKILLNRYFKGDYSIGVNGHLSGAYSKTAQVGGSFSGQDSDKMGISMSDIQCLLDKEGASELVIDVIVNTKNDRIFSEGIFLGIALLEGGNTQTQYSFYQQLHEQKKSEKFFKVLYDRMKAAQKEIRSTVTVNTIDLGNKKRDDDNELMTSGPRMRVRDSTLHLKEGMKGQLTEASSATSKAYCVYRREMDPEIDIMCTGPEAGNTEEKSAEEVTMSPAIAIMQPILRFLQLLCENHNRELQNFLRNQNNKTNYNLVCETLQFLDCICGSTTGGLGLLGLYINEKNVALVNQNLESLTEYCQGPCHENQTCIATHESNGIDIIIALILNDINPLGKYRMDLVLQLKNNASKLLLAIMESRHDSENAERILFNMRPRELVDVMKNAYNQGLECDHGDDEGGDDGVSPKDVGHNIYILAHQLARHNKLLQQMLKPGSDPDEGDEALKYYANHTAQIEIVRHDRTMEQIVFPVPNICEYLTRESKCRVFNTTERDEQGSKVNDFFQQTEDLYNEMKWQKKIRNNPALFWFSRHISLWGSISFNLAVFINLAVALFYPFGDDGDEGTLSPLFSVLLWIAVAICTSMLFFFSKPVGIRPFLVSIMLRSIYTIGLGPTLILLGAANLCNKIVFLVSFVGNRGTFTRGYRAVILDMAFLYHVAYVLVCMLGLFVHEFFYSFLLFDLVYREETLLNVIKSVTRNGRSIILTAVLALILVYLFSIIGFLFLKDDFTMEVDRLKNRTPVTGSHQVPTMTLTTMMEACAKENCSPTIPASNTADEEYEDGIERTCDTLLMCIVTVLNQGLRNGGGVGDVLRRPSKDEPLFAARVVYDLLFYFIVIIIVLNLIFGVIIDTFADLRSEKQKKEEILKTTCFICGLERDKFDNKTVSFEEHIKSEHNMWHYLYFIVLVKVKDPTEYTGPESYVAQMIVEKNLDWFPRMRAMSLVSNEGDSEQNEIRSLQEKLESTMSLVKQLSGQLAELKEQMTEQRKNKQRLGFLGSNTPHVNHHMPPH
UniProt Q13352: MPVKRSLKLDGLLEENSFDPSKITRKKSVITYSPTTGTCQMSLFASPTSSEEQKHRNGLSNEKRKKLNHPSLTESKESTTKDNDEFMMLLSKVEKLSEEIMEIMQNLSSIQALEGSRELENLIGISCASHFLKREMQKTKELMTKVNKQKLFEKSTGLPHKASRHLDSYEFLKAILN
UniProt Q9H9L4: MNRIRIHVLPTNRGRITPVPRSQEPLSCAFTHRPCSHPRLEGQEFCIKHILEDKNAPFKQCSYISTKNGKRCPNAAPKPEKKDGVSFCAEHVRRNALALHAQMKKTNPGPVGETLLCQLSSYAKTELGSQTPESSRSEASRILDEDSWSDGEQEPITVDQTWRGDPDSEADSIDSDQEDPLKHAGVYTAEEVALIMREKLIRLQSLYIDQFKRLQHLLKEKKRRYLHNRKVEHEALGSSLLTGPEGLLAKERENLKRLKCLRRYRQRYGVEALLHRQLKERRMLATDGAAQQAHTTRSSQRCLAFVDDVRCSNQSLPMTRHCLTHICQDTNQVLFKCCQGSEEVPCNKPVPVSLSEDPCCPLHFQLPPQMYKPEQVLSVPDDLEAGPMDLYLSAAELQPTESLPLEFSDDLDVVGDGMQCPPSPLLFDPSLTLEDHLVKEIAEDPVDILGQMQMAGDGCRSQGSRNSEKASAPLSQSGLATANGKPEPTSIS
UniProt Q8NHM5: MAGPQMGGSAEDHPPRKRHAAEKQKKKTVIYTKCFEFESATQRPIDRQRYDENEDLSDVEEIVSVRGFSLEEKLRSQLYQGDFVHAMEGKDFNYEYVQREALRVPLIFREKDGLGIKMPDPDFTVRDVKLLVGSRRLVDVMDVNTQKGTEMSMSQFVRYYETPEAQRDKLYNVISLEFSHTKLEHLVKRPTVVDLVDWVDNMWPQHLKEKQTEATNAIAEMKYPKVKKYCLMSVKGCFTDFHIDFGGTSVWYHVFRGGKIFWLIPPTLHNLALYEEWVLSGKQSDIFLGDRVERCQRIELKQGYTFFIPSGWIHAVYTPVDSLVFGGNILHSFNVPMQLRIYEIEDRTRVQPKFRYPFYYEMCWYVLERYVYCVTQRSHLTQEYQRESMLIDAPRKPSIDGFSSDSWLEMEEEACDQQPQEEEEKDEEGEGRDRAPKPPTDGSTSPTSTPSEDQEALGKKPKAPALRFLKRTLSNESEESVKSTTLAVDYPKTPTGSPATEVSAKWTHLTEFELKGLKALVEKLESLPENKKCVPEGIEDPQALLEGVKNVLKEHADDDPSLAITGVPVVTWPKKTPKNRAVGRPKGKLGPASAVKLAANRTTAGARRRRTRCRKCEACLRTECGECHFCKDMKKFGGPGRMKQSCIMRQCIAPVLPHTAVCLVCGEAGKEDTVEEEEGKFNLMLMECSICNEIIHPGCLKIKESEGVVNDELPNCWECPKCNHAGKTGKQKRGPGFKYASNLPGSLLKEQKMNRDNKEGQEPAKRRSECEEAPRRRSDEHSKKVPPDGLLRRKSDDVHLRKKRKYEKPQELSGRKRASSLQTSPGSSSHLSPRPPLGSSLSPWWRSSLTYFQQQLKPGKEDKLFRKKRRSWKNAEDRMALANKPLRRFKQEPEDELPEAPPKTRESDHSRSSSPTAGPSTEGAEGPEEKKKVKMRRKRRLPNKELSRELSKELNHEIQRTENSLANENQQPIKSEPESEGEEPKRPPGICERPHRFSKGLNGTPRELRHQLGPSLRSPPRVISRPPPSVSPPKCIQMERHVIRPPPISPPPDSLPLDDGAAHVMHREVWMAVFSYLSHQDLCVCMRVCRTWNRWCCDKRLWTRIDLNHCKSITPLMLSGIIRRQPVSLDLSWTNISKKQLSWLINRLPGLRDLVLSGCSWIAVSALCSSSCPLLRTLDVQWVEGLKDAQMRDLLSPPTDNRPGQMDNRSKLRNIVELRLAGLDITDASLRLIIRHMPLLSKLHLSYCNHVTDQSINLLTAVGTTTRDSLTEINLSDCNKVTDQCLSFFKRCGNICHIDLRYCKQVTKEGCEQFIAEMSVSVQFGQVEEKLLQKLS

Compound in one assay: C=CC(=O)N1CCC[C@@H](n2nc(-c3ccc(Oc4ccccc4)cc3)c3c(N)ncnc32)C1 [ibrutinib]
In words: log2 fold change, soluble protein after heating vs DMSO (PISA); higher = thermal stabilisation; K562 lysate, 10 uM; active = over 0.2 and 3.5 SD of the protein, either way, in both replicates (recomputed). In a few lines:
(§1)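 Quantification was by TMTpro 16plex LC-MS/MS with equalised channel sums, applied to the supernatant after 21,000xg for 90 min. Samples were crude K562 extract at 1 mg/mL protein in PBS pH 7.4 with 1 mM MgCl2, treated with 10 μM compound for 30 min, heated for 3 min across 48°C-58°C, pooled and brought to 0.5% NP-40 at 4°C. Values are log-two fold changes in thermal stability relative to solvent controls, from duplicates.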
For the target JAK1 (UniProt P23458), the log2 fold change is inactive: 0.004.
As for ITIH3 (UniProt Q06033), the log2 fold change is inactive: 0.067.
For JPT2 isoform 2 (UniProt Q9H910), the log2 fold change was inactive: -0.022.
Same read-out and setting: then IQCB1 (UniProt Q15051), with inactive: 0.11.
Same read-out and setting: then ISG20 (UniProt Q96AZ6), with inactive: 0.031.

Compound in the next assay: CC(=O)c1cnc2ccc(-c3cc(Cl)c(O)c(Cl)c3)nc2c1N[C@H]1CC[C@H](CN(C)C)CC1
The assay is described as above. In a few lines:
as §1
In the case of KCNN4 (UniProt O15554), the log2 fold change is inactive: -0.256.
KANK2 isoform 2 (UniProt Q63ZY3): the log2 fold change was inactive: -0.054.
For the target ITFG2 (UniProt H0YGR0), the log2 fold change is inactive: 0.016.
As for KCTD7 (UniProt Q96MP8), the log2 fold change was inactive: 0.076.
Same read-out and setting: then IPP (UniProt Q9Y573), with inactive: 0.042; and KDELR3 (UniProt O43731), with inactive: 0.125; and IST1 isoform 2 (UniProt P53990), with inactive: -0.071.
The same measure, in the same setting: then KATNBL1 (UniProt Q9H079), with inactive: -0.002; and JUN (UniProt P05412), with inactive: 0.079.
Still for that read-out and setting: then INTS6L (UniProt Q5JSJ4), with inactive: -0.053; and ITPR3 (UniProt Q14573), with inactive: -0.084.
For KAT2A (UniProt Q92830), the log2 fold change was inactive: 0.037.
With ITPR2 (UniProt Q14571), the log2 fold change was inactive: -0.04.
Regarding ISG20L2 (UniProt Q9H9L3), the log2 fold change was inactive: 0.016.
Consider KANSL1 (UniProt Q7Z3B3), for which the log2 fold change is inactive: -0.024.
Same read-out and setting: as for IPO5 (UniProt H0Y3V4), the figure is inactive: 0.106; as for ITGA2B (UniProt P08514), inactive: 0.039.

Compound in the next assay: CC(C)(C)Cn1c(N)nc2ccc(-c3[nH]c(C(C)(C)C)nc3-c3ccc(F)cc3)nc21 [ralimetinib]
The description is as above. In a few lines: as §1
Consider KCNN4 (UniProt O15554), for which the log2 fold change is inactive: 0.154.
Take IRF9 (UniProt Q00978): the log2 fold change was inactive: 0.103.
Turning to ITIH3 (UniProt Q06033), the log2 fold change was inactive: 0.236.
The same measure, in the same setting: then ITGB3BP isoform 5 (UniProt Q13352), with inactive: 0.091; and KANK2 isoform 2 (UniProt Q63ZY3), with inactive: 0.202.
Still for that read-out and setting: then ITFG2 (UniProt H0YGR0), with inactive: -0.043; and KCTD7 (UniProt Q96MP8), with inactive: -0.057; and IPP (UniProt Q9Y573), with inactive: 0.14.
The same measure, in the same setting: then KDELR3 (UniProt O43731), with inactive: -0.196; and IST1 isoform 2 (UniProt P53990), with inactive: -0.044; and INTU (UniProt Q9ULD6), with inactive: 0.053.
With JAK2 (UniProt O60674), the log2 fold change is inactive: 0.095.
Same read-out and setting: as for JUN (UniProt P05412), the figure is inactive: -0.067; as for INTS6L (UniProt Q5JSJ4), inactive: 0.003; as for KAT2A (UniProt Q92830), inactive: 0.135.
As to ITPR2 (UniProt Q14571), the log2 fold change was inactive: 0.069.
On to ISG20L2 (UniProt Q9H9L3), for which the log2 fold change was inactive: -0.079.
Regarding KANSL1 (UniProt Q7Z3B3), the log2 fold change is inactive: -0.031.
Take IPO5 (UniProt H0Y3V4): the log2 fold change was inactive: 0.117.
On the same count and under the same terms, as for KANSL2 (UniProt Q9H9L4), the figure is inactive: -0.111.
Same read-out and setting: as for ITGA2B (UniProt P08514), the figure is inactive: 0.013; as for KDM2B (UniProt Q8NHM5), inactive: 0.058.

The values above are taken from the supplement of paper PMC10849652.
